# Measurements published in PMC7819943, “Rice protein-binding microarrays: a tool to detect cis-acting elements near promoter regions in rice”.
# The chains behind the UniProt entries cited, without tags or fusion partners.
# UniProt Q0JBA9, entry or part of it: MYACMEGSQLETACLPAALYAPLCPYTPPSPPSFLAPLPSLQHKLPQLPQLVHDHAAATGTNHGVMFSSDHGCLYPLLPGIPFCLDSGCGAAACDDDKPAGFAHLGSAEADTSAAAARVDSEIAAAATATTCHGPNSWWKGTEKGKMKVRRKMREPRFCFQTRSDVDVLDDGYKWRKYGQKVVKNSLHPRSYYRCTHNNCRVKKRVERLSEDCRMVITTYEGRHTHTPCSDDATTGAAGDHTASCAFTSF
# Some of the results follow.
# Target: OsWRKY34 (Oryza sativa, UniProt Q0JBA9 1-250)
# Experiment: protein-binding microarray (RPBM); PBS, 2% BSA, 51.3 ng/ul salmon testes DNA, 50 uM zinc acetate, 200 nM TF, 25 C, 1 h; high values mean tight binding
# Conditions: protein: recombinant; tags: N-terminal polyhistidine and DsRed monomer fusion (pET32a); label: CyDye5-dUTP incorporated in the synthesized complementary strand; 3' TTTTT single-stranded linker to array surface; dsDNA, one strand shown
# How it was run: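 Binding signal is reported as fluorescence intensity per feature (arbitrary units) from an Axon 4000B scanner. Incubation used 200 nM of each Ni–NTA-purified, N-terminally polyhistidine- and DsRed-fused transcription factor from E. coli BL21-CodonPlus on a double-stranded custom Agilent array for 1 h at 25 °C, with 50 µM zinc acetate in the buffer, followed by washing.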
row,Sequence,binding signal
1,TTTATTTCCCTGTCGCCGTAGTCCCCTTTCCACCAAGTCACGGAGTCACCTAGTGCAG,8320 fluorescence intensity (a.u.)
2,CATCACCTTCCCCATCGACCGTCGTGCATCGTGCCCCGTCCGGAGTCACCTAGTGCAG,10000 fluorescence intensity (a.u.)
3,CATCCTATAAATCACTTGAAACTTGACATTCCACTTTATACGGAGTCACCTAGTGCAG,8100 fluorescence intensity (a.u.)
4,TCTCACTGTGCTCGGCCTTGGCCACCATCGTCATCCATTCCGGAGTCACCTAGTGCAG,10100 fluorescence intensity (a.u.)
5,TTCCTTGTTCTTCTTGCCTACTACTAATTCTTCCGATCTGCGGAGTCACCTAGTGCAG,9210 fluorescence intensity (a.u.)
6,GATCCTTTTGTGTTGACATATCATGGACAATCTTTTTCACCGGAGTCACCTAGTGCAG,8100 fluorescence intensity (a.u.)
7,AGCTTCTAACTTCTAGCTTATTTTCTCAATTATACAATTTCGGAGTCACCTAGTGCAG,8310 fluorescence intensity (a.u.)
8,AGTTCCTAATATTTCTCAATGTATATATGTACTCATTCCTCGGAGTCACCTAGTGCAG,9150 fluorescence intensity (a.u.)
9,CGTGCTTATATAGAGGCATCTGGGGAATTAGGGTTTGACTCGGAGTCACCTAGTGCAG,8860 fluorescence intensity (a.u.)
10,TTCTCATGTAATATCCGTCTTTTCGAAGAGCCTTTACGTACGGAGTCACCTAGTGCAG,8710 fluorescence intensity (a.u.)
11,ACTACTGTTGATGTGTGTGTTACTATGTAATTCTTGTGTTCGGAGTCACCTAGTGCAG,8670 fluorescence intensity (a.u.)
12,TCATCCGTGTATCAGTCGGTTTTTAAGTTCATTTCCTTTTCGGAGTCACCTAGTGCAG,13500 fluorescence intensity (a.u.)
13,GTGGTGGTCGTAGAGGACGGCTATGGCGGGCGGGGACATCCGGAGTCACCTAGTGCAG,8410 fluorescence intensity (a.u.)
14,CCGATCTATATGGGAGTTCCTGCAGTTAGTGTTCTTGAACCGGAGTCACCTAGTGCAG,8790 fluorescence intensity (a.u.)
15,GGGCCGTTAGATCTTTTCAGTCTCCTTATATACCCAACCACGGAGTCACCTAGTGCAG,9010 fluorescence intensity (a.u.)
16,GTCCGATCCTACTCTCGCGCCACATCGGACGGCCACGATCCGGAGTCACCTAGTGCAG,9900 fluorescence intensity (a.u.)
17,TCCTCTTCCTTTCTTGGTCTTTGAGGGGATAAAATTCAAGCGGAGTCACCTAGTGCAG,13400 fluorescence intensity (a.u.)
18,TGTTGTTGTTTTGTGATTTCTTGCTCTGCTATCGCTCGACCGGAGTCACCTAGTGCAG,8510 fluorescence intensity (a.u.)
19,GCCGCCGCCGCCGCCGCGCGCCACCACCGCCGCAACCATGCGGAGTCACCTAGTGCAG,8480 fluorescence intensity (a.u.)
20,TCCATGCTTCGGGTGACGTCCTCTTGATCCAAGAACTCGTCGGAGTCACCTAGTGCAG,8170 fluorescence intensity (a.u.)
21,CGCCGTCGCCCACCTCCTCAGCTCGCACCGCAACCTCGCCCGGAGTCACCTAGTGCAG,10600 fluorescence intensity (a.u.)
22,GCTTTATATGGGCCGGCACCTGATGGGCCTTCGTCATTTCCGGAGTCACCTAGTGCAG,9500 fluorescence intensity (a.u.)
23,GTTAGTTTGGTTGGGTTGGTTGCCGTATGGATGAGGGAAGCGGAGTCACCTAGTGCAG,9350 fluorescence intensity (a.u.)
24,GCGAACGCCTCTCGCGCGCGTGCTTACTGGTGACTGGTCCCGGAGTCACCTAGTGCAG,8200 fluorescence intensity (a.u.)
25,GTATTGGCTCCGTTCTCATCTCTAGTTCACACCGCCAATACGGAGTCACCTAGTGCAG,9160 fluorescence intensity (a.u.)
26,ATCACATTATCCGGCTGCCCACATATCCAATGTCTCAACCCGGAGTCACCTAGTGCAG,8160 fluorescence intensity (a.u.)
27,ATGGGATCGGATTCATTTTTGTTTTTTCGCCCGGTTTTTTCGGAGTCACCTAGTGCAG,14300 fluorescence intensity (a.u.)

# Part of the list above, reformatted:
row	Sequence	binding signal
11	ACTACTGTTGATGTGTGTGTTACTATGTAATTCTTGTGTTCGGAGTCACCTAGTGCAG	8670 fluorescence intensity (a.u.)
12	TCATCCGTGTATCAGTCGGTTTTTAAGTTCATTTCCTTTTCGGAGTCACCTAGTGCAG	13500 fluorescence intensity (a.u.)
13	GTGGTGGTCGTAGAGGACGGCTATGGCGGGCGGGGACATCCGGAGTCACCTAGTGCAG	8410 fluorescence intensity (a.u.)

# Further results follow:

row,Sequence,binding signal
1,TACACGCTCATGTACCTGCCCCGCGCGCCGCTGGTCGCCGCGGAGTCACCTAGTGCAG,8530 fluorescence intensity (a.u.)
2,ACTGGTATTTTGTGGTAGGTTCATTTCATATGCTCCGTACCGGAGTCACCTAGTGCAG,9100 fluorescence intensity (a.u.)
3,GCTGCTCATGCTATTTGTTCCAGTTATTCCGTTCAACCGCCGGAGTCACCTAGTGCAG,11000 fluorescence intensity (a.u.)
4,CACCACCATGTCATGTGCCCGCCCACTACTACCACTTCGCCGGAGTCACCTAGTGCAG,9610 fluorescence intensity (a.u.)
5,TATGATTTGCGGTCATTGGCAAAGTTGACTTTATTACTAACGGAGTCACCTAGTGCAG,9210 fluorescence intensity (a.u.)
6,ACGTTAGCAGGTTCTCAACTTCTCATCTGCTTCTCTCTTTCGGAGTCACCTAGTGCAG,8400 fluorescence intensity (a.u.)
7,ACTCGCTTAGCAAAACTTGGGTCATCTTACCACGAACTTCCGGAGTCACCTAGTGCAG,8970 fluorescence intensity (a.u.)
8,CACCACCTCGCCTCGCCTCTGTATTTAATGGCGCGCCGCGCGGAGTCACCTAGTGCAG,8160 fluorescence intensity (a.u.)
9,TGTGGGTGTGATTCGTGGGCTTCTTGGTGTCGGTGTGCCTCGGAGTCACCTAGTGCAG,8140 fluorescence intensity (a.u.)
10,TTGCACTTATCTCTATGTCAAGCCGTCACATTTTCCAGACCGGAGTCACCTAGTGCAG,10300 fluorescence intensity (a.u.)
11,TGCTGCCTGCGCCTGATTCTGACGATGTTACCGAAAGCTACGGAGTCACCTAGTGCAG,8330 fluorescence intensity (a.u.)
12,AGTTGTTGAGTTGGTGTCCTGTTCTTGGACGGACAAGGGTCGGAGTCACCTAGTGCAG,9330 fluorescence intensity (a.u.)
13,GTCTATGGTCACTGTTCTGGCTACCATGCATGCTCATGCTCGGAGTCACCTAGTGCAG,10200 fluorescence intensity (a.u.)
14,ATGTTGCCCTACCACTCTCCTGACCATCGTTTTCTTTTCCCGGAGTCACCTAGTGCAG,13700 fluorescence intensity (a.u.)
15,CGCCCGCCGCCTCCGTCGTCCCCGACCTCTACCACGCCCTCGGAGTCACCTAGTGCAG,10500 fluorescence intensity (a.u.)
16,TTATAGCTAGCTCTTACTTTATTGTACTGCGTTCTAGGGGCGGAGTCACCTAGTGCAG,14000 fluorescence intensity (a.u.)
17,TCCGCCGATCCCGCCGTCTCCGGCCATCTCCGCCGCCGGCCGGAGTCACCTAGTGCAG,9380 fluorescence intensity (a.u.)
18,GTTGGGGTGGAGGGCTGCTCCAGGTGAGAGGGCTGGGCATCGGAGTCACCTAGTGCAG,9900 fluorescence intensity (a.u.)
19,ACTAGTATCCCATCCATTCTTGCCTTCGAACCTCCATATTCGGAGTCACCTAGTGCAG,11400 fluorescence intensity (a.u.)
20,CACTTTTTCTTACTTTTAATTTTTTTTAATCTTGCTTTTACGGAGTCACCTAGTGCAG,9580 fluorescence intensity (a.u.)
21,AATTTGGGAGTGGGATGGTAATTGGGAAGTCATTGTATTTCGGAGTCACCTAGTGCAG,11900 fluorescence intensity (a.u.)
22,TTCTGATGCTATTTCCAGGCTCAAGCAGTGTGACACATCTCGGAGTCACCTAGTGCAG,9650 fluorescence intensity (a.u.)
23,TAGGTTGGGTTTTTTTGGGACGGAGGGAGTACAGGTTTATCGGAGTCACCTAGTGCAG,8830 fluorescence intensity (a.u.)
24,CATTATCATCATCTCCGGGTGGGAGAATCAGCGCATATAACGGAGTCACCTAGTGCAG,8320 fluorescence intensity (a.u.)
25,GTGCATTTGTAGGGGTGTTAGTGTGGTGTTACGTGCGTAGCGGAGTCACCTAGTGCAG,9290 fluorescence intensity (a.u.)
26,CAAGCGATCCATCTCTCCTTAGCCACACCCCAACTTTAACCGGAGTCACCTAGTGCAG,9250 fluorescence intensity (a.u.)
27,CGCATAATACTTTTACTTGCACCAATCAAGTACACGCTCTCGGAGTCACCTAGTGCAG,9320 fluorescence intensity (a.u.)
